From publication PMC7971865
No constants are given. Whether binding was seen depends on the method and setting. In cells and extracts the contact can be indirect. Some results given as binding are weak or reduced against the parent protein; the word gives no strength.

Molecular target: T1, caveolin-1 (mouse (endogenous in splenic CD4+ T cells)), P49817
T1 chain: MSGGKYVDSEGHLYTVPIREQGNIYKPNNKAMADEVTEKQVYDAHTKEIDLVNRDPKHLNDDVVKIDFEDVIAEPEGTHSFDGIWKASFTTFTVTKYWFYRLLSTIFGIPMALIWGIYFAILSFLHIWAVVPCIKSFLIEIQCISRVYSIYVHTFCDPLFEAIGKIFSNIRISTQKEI
Assay: proximity ligation; Duolink In Situ Red kit, mouse CSK and rabbit Cav-1 primary antibodies; fixed, permeabilised CD4+ T cells from Spry2+/+ and Spry2-/- mice, unstimulated or anti-CD3/CD28-stimulated (10 min)
Settings: remark: other sources report otherwise

B1: CSK, P41241 1-450 (enzyme)
chain: MSAIQAAWPSGTECIAKYNFHGTAEQDLPFCKGDVLTIVAVTKDPNWYKAKNKVGREGIIPANYVQKREGVKAGTKLSLMPWFHGKITREQAERLLYPPETGLFLVRESTNYPGDYTLCVSCEGKVEHYRIMYHASKLSIDEEVYFENLMQLVEHYTTDADGLCTRLIKPKVMEGTVAAQDEFYRSGWALNMKELKLLQTIGKGEFGDVMLGDYRGNKVAVKCIKNDATAQAFLAEASVMTQLRHSNLVQLLGVIVEEKGGLYIVTEYMAKGSLVDYLRSRGRSVLGGDCLLKFSLDVCEAMEYLEGNNFVHRDLAARNVLVSEDNVAKVSDFGLTKEASSTQDTGKLPVKWTAPEALREKKFSTKSDVWSFGILLWEIYSFGRVPYPRIPLKDVVPRVEKGYKMDAPDGCPPAVYEVMKNCWHLDAATRPTFLQLREQLEHIKTHELHL
binding: binds
